Data as given in PubChem BioAssay AID1224829 (NIAID, 2016).
Purpose: 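Secondary check of hits that alter LPS-induced p65 translocation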 (follow-up of hits). Cells: mouse RAW264.7 G9 macrophage reporter cells. Reagents: single siRNA against mouse genes, 100 nM. Time to read-out: 2 days of siRNA knock-down, then 40 min of LPS before fixing. Treatment: LPS (Salmonella minnesota R595) at 10 ng/ml. Detection: 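High-content images after 40 min LPS exposure; GFP-p65 nucleus to surrounding ring signal ratio, normalised to plate median and non-targeting control wells, expressed as z-score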. Reading the numbers: p65 translocation z-score and gene median z-score, per vendor: higher = more nuclear NF-kappaB p65 after LPS. Rule for the call: 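An siRNA is called active when the mean z-score of its two replicates is above 2 or below -2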. Meaning of the calls: active = changed p65 translocation (either direction); inactive = no clear change.
The whole screen tested about 3,800 reagents; below is a part drawn at random. 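Calls cover raised and lowered translocation; gene median uses one vendor's three siRNAs; qiagen siRNAs acted more weakly than ambion siRNAs.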

p65 translocation z-score, replicate mean | p65 translocation z-score, replicate 1 | p65 translocation z-score, replicate 2 | gene median z-score, per vendor | Call | target gene | PubChem SID | siRNA vendor or control pool
-0.518 | -0.518 | – | -0.575 | inactive | Rpf2 | SID315486450 | ambion single siRNA
-0.765 | -0.954 | -0.575 | -0.575 | inactive | Rpf2 | SID315486451 | ambion single siRNA
-0.727 | -1.31 | -0.143 | -0.575 | inactive | Rpf2 | SID315486452 | ambion single siRNA
-0.173 | 0.313 | -0.66 | -0.173 | inactive | Rpf2 | SID315486453 | qiagen single siRNA
2.52 | 2.22 | 2.82 | -0.173 | active | Rpf2 | SID315486454 | qiagen single siRNA
-4.85 | -1.08 | -8.61 | -0.173 | active | Rpf2 | SID315486455 | qiagen single siRNA
-2.25 | -1.73 | -2.78 | -2.82 | active | Alyref | SID315484980 | ambion single siRNA
-2.05 | -1.24 | -2.86 | -2.82 | active | Alyref | SID315484981 | ambion single siRNA
-4.86 | -4.79 | -4.94 | -2.82 | active | Alyref | SID315484982 | ambion single siRNA
2.13 | 0.882 | 3.37 | -1.07 | active | Alyref | SID315484983 | qiagen single siRNA
-2.64 | -2.75 | -2.53 | -1.07 | active | Alyref | SID315484984 | qiagen single siRNA
-1.07 | -1.54 | -0.605 | -1.07 | inactive | Alyref | SID315484985 | qiagen single siRNA
-3.82 | -3.36 | -4.29 | -2.32 | active | Cetn3 | SID315483948 | ambion single siRNA
2.52 | 2.52 | – | -2.32 | active | Cetn3 | SID315483949 | ambion single siRNA
-1.29 | -1.29 | – | -2.32 | inactive | Cetn3 | SID315483950 | ambion single siRNA
2 | 1.39 | 2.61 | 2 | inactive | Cetn3 | SID315483951 | qiagen single siRNA
3.94 | 2.85 | 5.04 | 2 | active | Cetn3 | SID315483952 | qiagen single siRNA
-2.56 | -1.93 | -3.18 | 2 | active | Cetn3 | SID315483953 | qiagen single siRNA
0.549 | 2 | -0.902 | -1.65 | inactive | Chd4 | SID315487485 | ambion single siRNA
-2.87 | -3.35 | -2.4 | -1.65 | active | Chd4 | SID315487486 | ambion single siRNA
-1.39 | -0.301 | -2.48 | -1.65 | inactive | Chd4 | SID315487487 | ambion single siRNA
-1.23 | -1.67 | -0.788 | -1.92 | inactive | Chd4 | SID315487488 | qiagen single siRNA
-2.34 | -2.45 | -2.23 | -1.92 | active | Chd4 | SID315487489 | qiagen single siRNA
-1.61 | -2.17 | -1.06 | -1.92 | inactive | Chd4 | SID315487490 | qiagen single siRNA
-1.87 | -1.87 | -1.88 | -2.07 | inactive | Spp2 | SID315486810 | ambion single siRNA
-1.97 | -1.14 | -2.81 | -2.07 | inactive | Spp2 | SID315486811 | ambion single siRNA
-3.98 | -2.26 | -5.7 | -2.07 | active | Spp2 | SID315486812 | ambion single siRNA
-0.898 | -1.02 | -0.776 | -1.02 | inactive | 2810032G03Rik | SID315486741 | ambion single siRNA
-3.26 | -3.05 | -3.47 | -1.02 | active | 2810032G03Rik | SID315486742 | ambion single siRNA
0.237 | 0.237 | – | -1.02 | inactive | 2810032G03Rik | SID315486743 | ambion single siRNA
0.51 | 0.54 | 0.48 | 0.47 | inactive | 2810032G03Rik | SID315486744 | qiagen single siRNA
-4.23 | -4.23 | – | 0.47 | active | 2810032G03Rik | SID315486745 | qiagen single siRNA
-0.295 | -1.06 | 0.47 | 0.47 | inactive | 2810032G03Rik | SID315486746 | qiagen single siRNA
-2.98 | -3.44 | -2.51 | -2.87 | active | Srrt | SID315487137 | ambion single siRNA
-4.12 | -4.99 | -3.24 | -2.87 | active | Srrt | SID315487138 | ambion single siRNA
-1.59 | -2.34 | -0.839 | -2.87 | inactive | Srrt | SID315487139 | ambion single siRNA
0.181 | 0.312 | 0.0499 | -0.359 | inactive | Srrt | SID315487140 | qiagen single siRNA
-1.19 | -0.767 | -1.61 | -0.359 | inactive | Srrt | SID315487141 | qiagen single siRNA
– | – | – | -0.359 | inactive | Srrt | SID315487142 | qiagen single siRNA
0.243 | -0.985 | 1.47 | -0.616 | inactive | Taar5 | SID315488124 | ambion single siRNA
-0.318 | 0.0565 | -0.693 | -0.616 | inactive | Taar5 | SID315488125 | ambion single siRNA
-1.68 | -0.54 | -2.81 | -0.616 | inactive | Taar5 | SID315488126 | ambion single siRNA
-1.01 | -1.03 | -0.996 | -1.03 | inactive | Taar5 | SID315488127 | qiagen single siRNA
1.61 | 1.61 | – | -1.03 | inactive | Taar5 | SID315488128 | qiagen single siRNA
-1.72 | -1.87 | -1.58 | -1.03 | inactive | Taar5 | SID315488129 | qiagen single siRNA
-3.05 | -3.12 | -2.98 | -0.838 | active | Gtf2f1 | SID315487383 | ambion single siRNA
-0.788 | 0.338 | -1.91 | -0.838 | inactive | Gtf2f1 | SID315487384 | ambion single siRNA
1.03 | 1.83 | 0.238 | -0.838 | inactive | Gtf2f1 | SID315487385 | ambion single siRNA
-1.02 | -1.02 | – | -1.02 | inactive | Gtf2f1 | SID315487386 | qiagen single siRNA
-1.45 | -1.13 | -1.76 | -1.02 | inactive | Gtf2f1 | SID315487387 | qiagen single siRNA
1.27 | 1.04 | 1.5 | -1.02 | inactive | Gtf2f1 | SID315487388 | qiagen single siRNA
-1.84 | -0.801 | -2.89 | -1.78 | inactive | Ptprn2 | SID315484731 | ambion single siRNA
-0.116 | -0.216 | -0.0167 | -1.78 | inactive | Ptprn2 | SID315484732 | ambion single siRNA
-2.86 | -2.96 | -2.75 | -1.78 | active | Ptprn2 | SID315484733 | ambion single siRNA
0.959 | 0.429 | 1.49 | 1.34 | inactive | Ptprn2 | SID315484734 | qiagen single siRNA
2.41 | 1.34 | 3.47 | 1.34 | active | Ptprn2 | SID315484735 | qiagen single siRNA
-5.89 | -5.89 | – | 1.34 | active | Ptprn2 | SID315484736 | qiagen single siRNA
-2.12 | -2.75 | -1.48 | -2.18 | active | Polr1a | SID315484824 | ambion single siRNA
-3.21 | -1.76 | -4.65 | -2.18 | active | Polr1a | SID315484825 | ambion single siRNA
-1.45 | -0.322 | -2.59 | -2.18 | inactive | Polr1a | SID315484826 | ambion single siRNA
3.03 | 2.98 | 3.08 | 1.19 | active | Polr1a | SID315484827 | qiagen single siRNA
0.0945 | -1 | 1.19 | 1.19 | inactive | Polr1a | SID315484828 | qiagen single siRNA
-1.8 | -1.8 | – | 1.19 | inactive | Polr1a | SID315484829 | qiagen single siRNA
4.04 | 2.27 | 5.81 | 2.69 | active | Scart2 | SID315488514 | ambion single siRNA
-0.539 | -1.21 | 0.128 | 2.69 | inactive | Scart2 | SID315488515 | ambion single siRNA
3.59 | 4.07 | 3.1 | 2.69 | active | Scart2 | SID315488516 | ambion single siRNA
-2.02 | -0.295 | -3.75 | -2.09 | active | Scart2 | SID315488517 | qiagen single siRNA
-1.63 | -1.63 | – | -2.09 | inactive | Scart2 | SID315488518 | qiagen single siRNA
-2.54 | -2.54 | – | -2.09 | active | Scart2 | SID315488519 | qiagen single siRNA

Part of the list above, reduced to “gene median z-score, per vendor”.
Chd4 [SID315487490], siRNA vendor or control pool qiagen single siRNA = -1.92
Spp2 [SID315486810], siRNA vendor or control pool ambion single siRNA = -2.07
Spp2 [SID315486811], siRNA vendor or control pool ambion single siRNA = -2.07
Spp2 [SID315486812], siRNA vendor or control pool ambion single siRNA = -2.07
2810032G03Rik [SID315486741], siRNA vendor or control pool ambion single siRNA = -1.02
2810032G03Rik [SID315486742], siRNA vendor or control pool ambion single siRNA = -1.02
2810032G03Rik [SID315486743], siRNA vendor or control pool ambion single siRNA = -1.02
2810032G03Rik [SID315486744], siRNA vendor or control pool qiagen single siRNA = 0.47
2810032G03Rik [SID315486745], siRNA vendor or control pool qiagen single siRNA = 0.47
2810032G03Rik [SID315486746], siRNA vendor or control pool qiagen single siRNA = 0.47
